No constants are given. Whether binding was seen depends on the method and setting. Binding seen in cells or lysates may run through a third protein. Here binding means that the protein was enriched with, or labelled near, the bait; the list need not be complete.

This assay addresses ROP1-HA of the T. gondii PRU strain (PRU ROP1-HA) (Toxoplasma gondii (PRU strain)). Briefly: affinity purification with mass spectrometry; anti-HA agarose matrix overnight at 4°C on lysates (50 mM Tris, 150 mM NaCl, 0.2% Triton X-100, pH 7.5) of IFNγ-stimulated primary C57BL/6J MEFs infected for 24 h with PRU ROP1-HA or parental PRUΔKU80; in-gel digest, LC-MS/MS, iBAQ.

B1: Complement Component 1q Binding Protein (C1QBP), mouse (protein, UniProt O35658 71-278)
chain: LHTEGDKAFVEFLTDEIKEEKKIQKHKSLPKMSGDWELEVNGTEAKLLRKVAGEKITVTFNINNSIPPTFDGEEEPSQGQKAEEQEPERTSTPNFVVEVTKTDGKKTLVLDCHYPEDEIGHEDEAESDIFSIKEVSFQATGDSEWRDTNYTLNTDSLDWALYDHLMDFLADRGVDNTFADELVELSTALEHQEYITFLEDLKSFVKNQ
Turning to B1, the binding result is given as “binds”.

B2: USP17LA (protein, UniProt Q61068 1-526)
chain: MVVALSFPEADPALSSPDAPELHQDEAQVVEELTVNGKHSLSWESPQGPGCGLQNTGNSCYLNAALQCLTHTPPLADYMLSQEHSQTCCSPEGCKLCAMEALVTQSLLHSHSGDVMKPSHILTSAFHKHQQEDAHEFLMFTLETMHESCLQVHRQSKPTSEDSSPIHDIFGGWWRSQIKCLLCQGTSDTYDRFLDIPLDISSAQSVKQALWDTEKSEELCGDNAYYCGKCRQKMPASKTLHVHIAPKVLMVVLNRFSAFTGNKLDRKVSYPEFLDLKPYLSEPTGGPLPYALYAVLVHDGATSHSGHYFCCVKAGHGKWYKMDDTKVTRCDVTSVLNENAYVLFYVQQANLKQVSIDMPEGRINEVLDPEYQLKKSRRKKHKKKSPFTEDLGEPCENRDKRAIKETSLGKGKVLQEVNHKKAGQKHGNTKLMPQKQNHQKAGQNLRNTEVELDLPADAIVIHQPRSTANWGRDSPDKENQPLHNADRLLTSQGPVNTWQLCRQEGRRRSKKGQNKNKQGQRLLLVC
Consider B2, for which the binding entry is given as “binds”.
